One test deals with protein A (UniProt P38507). Description: batch capture on Protein A Sepharose 4 Fast Flow beads, elution at pH 3.0.
Test [1] addresses human CD123 (alpha chain of the interleukin-3 receptor) (human) (UniProt P26951). Description: calibrated flow cytometry on antigen-positive cells, variants compared. For orientation: Flow cytometry measures light scatter and fluorescence of single cells or particles in a stream.

Amino acid sequences for entries named in this document (tags omitted). A change or cut given only in a name is not applied to a line headed by its entry.
UniProt P26951: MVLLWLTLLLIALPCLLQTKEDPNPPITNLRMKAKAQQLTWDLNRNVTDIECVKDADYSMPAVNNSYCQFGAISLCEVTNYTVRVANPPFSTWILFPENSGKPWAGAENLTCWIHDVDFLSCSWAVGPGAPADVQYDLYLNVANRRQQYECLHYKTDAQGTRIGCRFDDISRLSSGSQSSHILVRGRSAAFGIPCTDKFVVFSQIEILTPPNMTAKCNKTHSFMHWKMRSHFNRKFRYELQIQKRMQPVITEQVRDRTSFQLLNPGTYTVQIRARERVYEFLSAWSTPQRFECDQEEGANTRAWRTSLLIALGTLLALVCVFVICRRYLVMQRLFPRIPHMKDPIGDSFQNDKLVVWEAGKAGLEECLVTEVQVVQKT

No constants are given. Whether binding was seen depends on the method and setting. Some entries that bind do so weakly or less than the wild type.

B1: single chain triplebody SPM-2, hu(33-ds16-ds123RK) (protein)
chain: EVQLVESGGGLIQPGGSLRLSCAASGFPLTSYGVSWVRQPPGKGLEWLGVIWGDGSTNYHSALISRFTISRDNSKNTLYLQMNSLRAEDTAVYYCARDTYYPYYAMDYWGQGTTVTVSSGGGGSGGGGSGGGGSDIQMTQSPSSLSASVGDRVTITCKASQDVSTAVAWYQQKPGKAPKLLIYSASYRYTGVPSRFSGSGSGTDFTLTISSLQPEDFATYYCQQHYSTPLTFGQGTKLEIKRGGGGSGGGGSGGGGSGGGGSDIVLTQSPSSLSASVGDRVTITCKASQSVDFDGDSFMNWYQQKPGKAPKLLIYTTSNLESGVPSRFSASGSGTDFTLTISSLQPEDFATYYCQQSNEDPYTFGCGTKVEIKRGGGGSGGGGSGGGGSGGGGSEVQLVESGGGDVQPGGSLRLSCAFSGFSLRTSGMGVGWIRQAPGKCLEWVAHIWWDDDKRYNPSVKGRFTISKDTSSNTVYLQMNSLRAEDTAVYYCAQINPAWFAYWGQGTLVTVSSGGGGSGGGGSGGGGSGGGGSEVQLVESGGGLVQPGGSLRLSCAASGFTFTDYYMSWVRQAPGKCLEWLALIRSKADGYTTEYSASVKGRFTISRDDSKNSLYLQMNSLKTEDTAVYYCARDAAYYSYYSPEGAMDYWGQGTSVTVSSGGGGSGGGGSGGGGSDIQMTQSPSSLSASVGDRVTITCKASQNVDSAVAWYQQKPGKAPKALIYSASYRYSGVPSRFSGSGSGTDFTLTISSLQPEDFATYYCQQYYSTPWTFGCGTKVEIKRGGGGSHHHHHH
Take B1: the binding result with protein A is “binds”.

B2: candidate triplebody hu[33-ds16-ds123RK] before polishing of the sequence (protein, not shown: small tags and cut ends)
chain: EVQLVESGGGLIQPGGSLRLSCAASGFPLTSYGVSWVRQPPGKGLEWLGVIWGDGSTNYHSALISRFTISRDNSKNTLYLQMNSLRAEDTAVYYCARDTYYPYYAMDYWGQGTTVTVSSGGGGSGGGGSGGGGSDIQMTQSPSSLSASVGDRVTITCKASQDVSTAVAWYQQKPGKAPKLLIYSASYRYTGVPSRFSGSGSGTDFTLTISSLQPEDFATYYCQQHYSTPLTFGQGTKLEIKRGGGGSGGGGSGGGGSGGGGSDIVLTQSPSSLSASVGDRVTITCKASQSVDFDGDSFMNWYQQKPGKAPKLLIYTTSNLESGVPSRFSASGSGTDFTLTISSLQPEDFATYYCQQSNEDPYTFGCGTKVEIKRGGGGSGGGGSGGGGSGGGGSEVQLVESGGGDVQPGGSLRLSCAFSGFSLRTSGMGVGWIRQAPGKCLEWVAHIWWDDDKRYNPSVKGRFTISKDTSSNTVYLQMNSLRAEDTAVYYCAQINPAWFAYWGQGTLVTVSSGGGGSGGGGSGGGGSGGGGSEVQLVESGGGLVQPGGSLRLSCAASGFTFTDYYMSWVRQAPGKCLEWLALIRSKADGYTTEYSASVKGRFTISRDDSKNSLYLQMNSLKTEDTAVYYCARDAAYYSYYSPEGAMDYWGQGTSVTVSSGGGGSGGGGSGGGGSDIQMTQSPSSLSASVGDRVTITCKASQNVDSAVAWYQQKPGKAPKALIYSASYRYSGVPSRFSGSGSGTDFTLTISSLQPEDFATYYCQQYYSTPWTFGCGTKVEIKR
Turning to B2, the binding result in test [1] is given as “binds”.

For the origin of these results see patent US20190359710A1.
